The series concerns OATP1B2. The experiment in a line: Untargeted metabolomics of plasma and DRG, WT vs OATP1B2-deficient mice. The class given is in vivo, mouse. The settings on record: untargeted metabolomics, WT vs OATP1B2-deficient mice.
Where [1] appears, read: supplement sheet "Figure 5B" (volcano plot).
The mark [2] stands for this setting: Figure 5B source data (volcano plot), log2 fold change of metabolite level.

We go through 47 molecules from article PMC10443802 (JCI Insight, 2023).

`CC(C)CCCCCCCCCCCCCCCCC(=O)O` [18-methylnonadecanoate (i20:0)] came in with a Log2FoldChange (supplement sheet "Figure 5B") of -0.1047.

Where the note is “supplement sheet "Figure 5B"”, `C[C@H](O)CC(=O)OC(CC(=O)[O-])C[N+](C)(C)C` (stereo partly drawn) [(S)-3-hydroxybutyrylcarnitine] displayed a Log2FoldChange of 0.1375.

For the molecule `N[C@@H](Cc1c(C2OC(CO)C(O)C(O)C2O)[nH]c2ccccc12)C(=O)O` (stereo partly drawn) [C-glycosyltryptophan], the Log2FoldChange is reported as 0.05658 (supplement sheet "Figure 5B") and 0.1763 (sheet "Figure 5C").

Under setting [1], `C[C@H](CCC(=O)O[C@@H]1O[C@H](C(=O)O)[C@@H](O)[C@H](O)[C@H]1O)[C@H]1CC[C@H]2[C@@H]3[C@H](O)C[C@@H]4C[C@H](O)CC[C@]4(C)[C@H]3CC[C@]12C` [CDCA 24-G] had a Log2FoldChange of 6.614.

In the case of `Cn1ccc(=O)c(C(N)=O)c1` [N1-Methyl-4-pyridone-3-carboxamide], the Log2FoldChange under setting [2] is -0.2515.

For `Cn1cnc2c(ncn2[C@@H]2O[C@H](CO)[C@@H](O)[C@H]2O)c1=N` [N1-methyladenosine], the Log2FoldChange reads like this: (supplement sheet "Figure 5B") 0.08406; (sheet "Figure 5C") 0.5261.

With `Cn1cnc2c(ncn2[C@@H]2O[C@H](CO)[C@@H](O)[C@H]2O)c1=O` [N1-methylinosine], the Log2FoldChange is recorded as 0.275 under setting [1] and 0.546 (sheet "Figure 5C").

`CN(C)c1nc2c(ncn2[C@@H]2O[C@H](CO)[C@@H](O)[C@H]2O)c(=O)[nH]1` [N2,N2-dimethylguanosine] had a Log2FoldChange (supplement sheet "Figure 5B") of -0.074 and a Log2FoldChange (sheet "Figure 5C") of 0.4751.

The molecule `CC(=O)NCCC[C@H](NC(C)=O)C(=O)O` [N2,N5-diacetylornithine] came in with a Log2FoldChange under setting [1] of 0.3448.

`CC(=O)NCCCC[C@H](NC(C)=O)C(=O)O` [N2,N6-diacetyllysine] returned a Log2FoldChange under setting [1] of 0.275.

As for `CC(=O)NC(CCCCN)C(=O)O` (stereo not drawn) [N2-acetyllysine], the Log2FoldChange reads like this: (supplement sheet "Figure 5B") 0.09761; (sheet "Figure 5C") 0.3561.

Regarding `CC(=O)Nc1ccn([C@@H]2O[C@H](CO)[C@@H](O)[C@H]2O)c(=O)n1` [N4-acetylcytidine], the Log2FoldChange is, setting by setting: under setting [1], 0.4436; (sheet "Figure 5C") -0.1681.

As for `C[N+](C)(C)CCCC[C@H](N)C(=O)O` [N6,N6,N6-trimethyllysine], where the note is “sheet "Figure 5C"”, the Log2FoldChange was found to be 0.251.

For the molecule `CN(C)CCCC[C@H](N)C(=O)O` [N6,N6-dimethyllysine], the Log2FoldChange under setting [2] was -0.889.

Take `CC(=O)NCCCC[C@H](N)C(=O)O` [N6-acetyllysine]: the Log2FoldChange is on record as 0.05658 (supplement sheet "Figure 5B") and 0.1375 (sheet "Figure 5C").

Turning to `N[C@@H](CCCCNCC(=O)O)C(=O)O` [N6-carboxymethyllysine], the Log2FoldChange was 0.02857 (supplement sheet "Figure 5B") and 0.2265 (sheet "Figure 5C").

Regarding `CNCCCC[C@H](N)C(=O)O` [N6-methyllysine], the Log2FoldChange is on record as -0.9714 under setting [2] and -1 (sheet "Figure 5C").

In turn, `O=C(O)C[C@H](Nc1ncnc2c1ncn2[C@@H]1O[C@H](CO)[C@@H](O)[C@H]1O)C(=O)O` [N6-succinyladenosine] returned a Log2FoldChange (supplement sheet "Figure 5B") of 0.2016 and a Log2FoldChange (sheet "Figure 5C") of 0.9928.

Regarding `C[N+](C)(C)CCCCC(=O)[O-]` [N,N,N-trimethyl-5-aminovalerate], the Log2FoldChange amounted to 1.7866 under setting [1] and 2.111 (sheet "Figure 5C").

With `C[N+]1(C)CCC[C@H]1C(=O)N1CCC[C@H]1C(=O)O` [N,N-dimethyl-pro-pro], the Log2FoldChange (supplement sheet "Figure 5B") was determined as 0.02857 and the Log2FoldChange (sheet "Figure 5C") was determined as 0.2388.

Molecule `C[C@@H](C(=O)O)N(C)C` [N,N-dimethylalanine] showed a Log2FoldChange under setting [1] of 0.275.

Regarding `O=C(O)CNC(=O)c1ccco1` [N-(2-furoyl)glycine], the Log2FoldChange under setting [2] is given as -0.1844.

As for `CCCCCCC(NC(C)=O)C(=O)O` (stereo not drawn) [N-acetyl-2-aminooctanoate*], the Log2FoldChange (supplement sheet "Figure 5B") is 0.1763.

Consider `CC(=O)NC(Cc1cn(C)cn1)C(=O)O` (stereo not drawn) [N-acetyl-3-methylhistidine*], for which the Log2FoldChange under setting [1] amounted to 0.3103.

For the setting “sheet "Figure 5C"”, `CC(=O)N[C@H]1C(OP(=O)(O)O)O[C@H](CO)[C@@H](O)[C@@H]1O` (stereo partly drawn) [N-acetyl-glucosamine 1-phosphate] displayed a Log2FoldChange of -0.0145.

Turning to `CC(=O)NCCCNCCCC(=O)O` [N-acetyl-isoputreanine], the Log2FoldChange (supplement sheet "Figure 5B") is 0.111.

With `CC(=O)N[C@@H](C)C(=O)O` [N-acetylalanine], the Log2FoldChange (supplement sheet "Figure 5B") is 0.09761.

As for `CC(=O)N[C@@H](CCCNC(=N)N)C(=O)O` [N-acetylarginine], the Log2FoldChange reads like this: (supplement sheet "Figure 5B") -0.0145; (sheet "Figure 5C") 0.08406.

`CC(=O)N[C@@H](CC(N)=O)C(=O)O` [N-acetylasparagine] displayed a Log2FoldChange (supplement sheet "Figure 5B") of 0.08406.

For the molecule `CC(=O)N[C@@H](CCCNC(N)=O)C(=O)O` [N-acetylcitrulline], the Log2FoldChange (supplement sheet "Figure 5B") is on record as 0.111.

As to `CC(=O)N[C@@H]1[C@@H](O)[C@H](O)[C@@H](CO)O[C@H]1NC(=O)C[C@H](N)C(=O)O` [N-acetylglucosaminylasparagine], the Log2FoldChange amounted to 0.3561 under setting [1] and 0.3448 (sheet "Figure 5C").

`CC(=O)N[C@@H](CCC(N)=O)C(=O)O` [N-acetylglutamine]: the Log2FoldChange runs as follows: under setting [2], -0.1844; (sheet "Figure 5C") 0.3219.

Consider `CC(=O)N[C@@H](Cc1c[nH]cn1)C(=O)O` [N-acetylhistidine], for which the Log2FoldChange (supplement sheet "Figure 5B") was determined as 0.2016.

In the case of `CC(=O)N[C@@H](CCCCNC(N)=O)C(=O)O` [N-acetylhomocitrulline], the Log2FoldChange under setting [1] stood at 0.433.

As for `CC[C@H](C)[C@H](NC(C)=O)C(=O)O` [N-acetylisoleucine], the Log2FoldChange reads like this: (supplement sheet "Figure 5B") 0.09761; (sheet "Figure 5C") 0.3219.

In turn, `CC(=O)N[C@@H](CC(=O)c1ccccc1N)C(=O)O` [N-acetylkynurenine (2)] had a Log2FoldChange under setting [1] of 0.4957.

As to `CC(=O)N[C@@H](CC[S+](C)[O-])C(=O)O` (stereo partly drawn) [N-acetylmethionine sulfoxide], the Log2FoldChange by setting is: under setting [1], 0.4854; (sheet "Figure 5C") 0.1375.

In the case of `CSCCC(NC(C)=O)C(=O)O` (stereo not drawn) [N-acetylmethionine], the Log2FoldChange (sheet "Figure 5C") stood at 0.3103.

Molecule `CC(=O)N[C@H]1[C@H]([C@@H](O)[C@@H](O)CO)O[C@@](O)(C(=O)O)C[C@@H]1O` [N-acetylneuraminate] gave a Log2FoldChange (sheet "Figure 5C") of 0.1763.

For `CC(=O)NC(Cc1ccccc1)C(=O)O` (stereo not drawn) [N-acetylphenylalanine], the Log2FoldChange is listed as 0.189 (supplement sheet "Figure 5B") and 0.2869 (sheet "Figure 5C").

`CC(=O)NCCCCN` [N-acetylputrescine]: the Log2FoldChange is on record as 0.1763 (supplement sheet "Figure 5B") and 0.856 (sheet "Figure 5C").

For the molecule `CC(=O)NC(CCCCn1c(C=O)ccc1CO)C(=O)O` (stereo not drawn) [N-acetylpyrraline], the Log2FoldChange under setting [1] came out at 0.2869.

Take `CC(=O)NC(CO)C(=O)O` (stereo not drawn) [N-acetylserine]: the Log2FoldChange (supplement sheet "Figure 5B") was determined as 0.1375.

Consider `CC(=O)N[C@H](C(=O)O)[C@@H](C)O` [N-acetylthreonine], for which, for the setting “sheet "Figure 5C"”, the Log2FoldChange was found to be 0.09761.

As for `CC(=O)NC(Cc1c[nH]c2ccccc12)C(=O)O` (stereo not drawn) [N-acetyltryptophan], the Log2FoldChange (supplement sheet "Figure 5B") was 0.111 and the Log2FoldChange (sheet "Figure 5C") was determined as 0.3561.

In the case of `CC(=O)N[C@@H](Cc1ccc(O)cc1)C(=O)O` [N-acetyltyrosine], the Log2FoldChange under setting [1] is 0.3448 and the Log2FoldChange (sheet "Figure 5C") is listed as 0.09761.

Regarding `CC(=O)N[C@H](C(=O)O)C(C)C` [N-acetylvaline], the Log2FoldChange was found to be 0 (supplement sheet "Figure 5B") and 0.189 (sheet "Figure 5C").
